At least one peptide structure holds a part that was inferred or is arguable (an end, a ring closure or a residue). Ends that are not written are not given here. Peptide text beside a SMILES is read from it.
Columns and labels:
Toxoplasma = experiment: Toxo-GIF activity of synthetic peptides used singly and in combination (host cells not stated); assay type: cell-based, Toxoplasma gondii; details: total mg/ml: Obio-1 0.49, Obio-2 0.50, Obio-3 0.45, Obio-1+Obio-2 0.49, Obio-1+Obio-3 0.46, Obio-2+Obio-3 0.47
Experimental: (§1) In the present invention, the activity to inhibit multiplication of Toxoplasma is evaluated by two characteristics, i.e. "percentage of cells containing Toxoplasma" and "Toxoplasma growth inhibitory factor activity (hereinafter referred to as "Toxo-GIF activity")". These characteristics are measured according to the methods described in Nagasawa, H., et.al., Jpn. J. Vet. Sci., vol. 43, pages 307-319, 1981 and Sakurai, H., et.al., Jpn. J. Trop. Med. Hyg., vol. 10, pages 183-195, 1982.
(§2) A 10%-HICS-Tc199 culture medium containing a peptide sample is applied to the cover glass in an amount of 1 ml per 1×10^6 cells for both of the mouse macrophages and the canine monocytes, followed by cultivation for 48 hours, and then stained with May-Grunwald-Giemsa to thereby count the number of Toxoplasma organisms in the cells. Within a certain visual field on the cover glass, 100 cells are checked to count the number of cells which contain no Toxoplasma, the number of cells which contain one to five Toxoplasm organisms and the number of cells which contain 6 or more Toxoplasma organisms, and the count results are expressed by percentage. Similar checking and counting are performed within four other visual fields on the cover glass. From the data obtained on all of the five visual fields, an average value and a standard deviation are calculated to determine the percentage of cells containing Toxoplasma.
The Toxo-GIF activity, which is another activity useful for evaluating the activity to inhibit multiplication of Toxoplasma, is defined as a proportion of decrease of Toxoplasma (Tp)-containing cells (in percentage) attributed to the addition of a peptide sample, expressed by percentage, and calculated according to the following formula: Toxo-GIF Activity (%)= [formula]

Toxoplasma strain RH = experiment: Activity to inhibit multiplication of Toxoplasma (percentage of cells containing Toxoplasma, Toxo-GIF activity, cytotoxicity) in mouse peritoneal macrophages; assay type: cell-based, Toxoplasma gondii; details: synthetic peptide 0.7 mM
Experimental: as §1
An adult BALB/c female mouse is intraperitoneally injected with 1 ml of a sterilized saline containing 0.2% of glycogen, and, 5 days later, the peritoneal cavity of the mouse is washed with cold Hank's balanced salt solution (hereinafter referred to as "HBSS"), thereby taking up peritoneal exudate cells. These cells are washed by centrifugation at 250×G for 5 min twice, and suspended in Tc199 culture medium containing 10% of heat-inactivated calf serum (hereinafter referred to as "10%-HICS-Tc199 culture medium", see Igaku No Ayumi (Progress in Medicine), 62, No. 6, published on Aug. 5, 1967) in a concentration of 1×10^6 cells/mi. This cell suspension is portionwise poured, 1 ml each, into culture wells (Multidish-tray, FB-16-24-TC, manufactured and sold by Limblo Chemical Co., U.S.A.), which are covered by a circular cover glass having a diameter of 15 mm, and cultured in a 5% CO2 -incubator. In order to remove contaminating erythrocytes and lymphocytes, each of the culture wells is gently rinsed with HBSS three times at intervals of 2 hours, and then cultivated overnight in the CO2 -incubator to thereby form a mouse macrophage monolayer on the cover glass.
Each of the above-obtained monolayers is again rinsed with 10%-HICS-Tc199 culture medium, and inoculated with 1×10^5 tachyzoites of Toxoplasma strain RH per 1×10^6 mouse macrophages or canine monocytes so that the macrophages are infected thereby. Free Toxoplasma organisms having not penetrated into the cells are removed by washing with HBSS one hour after the inoculation.
as §2
As a peptide sample, use is made of one obtained by dissolving a powdery peptide in 3 ml of 10%-HICS-Tc199 culture medium and then filtering and sterilizing the resultant solution through a membrane filter having a pore size of 0.46 μm. […]
The thus obtained crude Obioactin is fractionated by DEAE-5PW column (manufactured and sold by Tosoh Co., Japan) having an inside diameter of 21.5 mm and a length of 15 cm by NaCl concentration gradient ion exchange chromatography in which a concentration gradient of NaCl from 0M to 1M is made in 0.02M ammonium acetate as a basic solution. Each of the fractions is lyophilized, desalted by gel filtration through Sephadex G-15 (trade name of a gel manufactured and sold by Pharmacia Fine Chemicals Co., Sweden) and lyophilized again.

Compound	Percentage of cells containing Toxoplasma (Tp): 0 Tp (Toxoplasma) [%]	Percentage of cells containing Toxoplasma (Tp): 1-5 Tp (Toxoplasma) [%]	Percentage of cells containing Toxoplasma (Tp): ≥6 Tp/cell (Toxoplasma) [%]	Toxo-GIF (Toxoplasma) [%]	Percentage of cells containing Toxoplasma (Tp): 0 Tp (Toxoplasma strain RH) [%]	Percentage of cells containing Toxoplasma (Tp): 1-5 Tp (Toxoplasma strain RH) [%]	Percentage of cells containing Toxoplasma (Tp): ≥6 Tp/cell (Toxoplasma strain RH) [%]	Toxo-GIF (Toxoplasma strain RH) [%]
GEEEEE [Obio-1, Gly-Glu-Glu-Glu-Glu-Glu, reference compound]	48.8 ± 15.0	33.8 ± 9.7	17.4 ± 8.7	37.9	66.6 ± 15.3	31.8 ± 14.0	1.6 ± 1.9	64.0
NCC(=O)N[C@@H](CCC(=O)O)C(=O)O [peptide No. 1, Gly-Glu] (H-Gly-Glu-OH)					51.7 ± 5.9	41.6 ± 7.7	7.8 ± 3.4	47.6
CC(C)[C@H](NC(=O)[C@@H](NC(=O)[C@@H]1CCCN1C(=O)[C@@H](N)CCC(=O)O)C(C)C)C(=O)O [peptide No. 3, Glu-Pro-Val-Val] (H-EPVV-OH)					32.6 ± 14.0	51.0 ± 7.5	16.4 ± 8.4	27.4
CC(C)[C@H](NC(=O)[C@@H](NC(=O)[C@@H]1CCCN1)C(C)C)C(=O)O [peptide No. 2, Pro-Val-Val] (H-Pro-Val-Val-OH)					35.2 ± 14.1	33.0 ± 10.2	31.8 ± 7.3	30.2
EEPVV [peptide No. 4, Glu-Glu-Pro-Val-Val]					35.2 ± 11.5	38.0 ± 10.6	26.8 ± 11.0	30.2

— patent US5464819A, “Physiologically active peptide having immunoregulatory activities” (priority 1990, dated 1995)
